Results reported in US5656601 (dated 1997).

Assay: general procedure: solution-phase peptide synthesis; acetyl-ONB / Pal-ONB (acylating agents)
Conditions: HOAc, TFA or HCl salts
[1] = late stage modification step, of the theoretical

Substance | step yield [1] [%] | step yield (late stage modification step, of the theoretical, run 1) [%] | step yield (late stage modification step, of the theoretical, run 2) [%] | crude HPLC purity (late stage modification step, reverse phase HPLC) [%] | step yield (purification step) [%] | final HPLC purity (purification step, reverse phase HPLC) [%]
(N^α -acetyl-arginyl)lysylglutamylvalyltyrosine | 95.6 | – | – | – | – | –
(N^α -acetyl-arginyl)(N^ε -acetyl-lysyl)glutamylvalyltyrosine | – | 92 | 90 | 75 | 54.3 | 98.5
(N^α -Palmitoyl-arginyl)lysylglutamylvalyltyrosine | 92.7 | – | – | – | – | –
